The values below come from the supplement of paper PMC12593923.

Molecules are shown by their SMILES. Counter-ions that a name gives are not always drawn. Several reference drugs read as weak here; read low effects with care.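 OVCAR3, described as chemosensitive, is one of three high-grade serous ovarian cancer lines that differ in chemosensitivity. Toxicity was scaled from DMSO vehicle wells to fully lysed wells; scores came from fitted multi-dose response curves, and the authors treated scores above 5 as indicating drug sensitivity.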

Experiment in all cases: drug sensitivity score (DSS2, cytotoxicity, CellTox Green); higher = more cytotoxic / more sensitive; extreme values may be limits of the assay
Conditions in all cases: 72 h; doses 0.5, 1, 5 µM

Experiment [1] relates to OVCAR4.
Experiment [2] relates to OVCAR3.
For experiment [3], the system named is Kuramochi.

As to `COc1cc2nccc(Oc3ccc(NC(=O)C4(C(=O)Nc5ccc(F)cc5)CC4)cc3)c2cc1OC` [Cabozantinib], the drug sensitivity score in experiment [1], in experiment [2] and in experiment [3] was 0 DSS throughout.
`C[C@]12CC[C@@H]3c4ccc(OS(=O)(=O)O)cc4CC[C@H]3[C@@H]1CCC2=O` [Estropipate]: the drug sensitivity score in experiment [1], in experiment [2] and in experiment [3] was 0 DSS each time.
As for `COc1ccc(C2=N[C@@H](c3ccc(Cl)cc3)[C@@H](c3ccc(Cl)cc3)N2C(=O)N2CCNC(=O)C2)c(OC(C)C)c1` [Nutlin-3a], the drug sensitivity score in experiment [1], in experiment [2] and in experiment [3] was 0 DSS in each case.
In the case of `CCN1CCN(Cc2ccc(Nc3ncc(F)c(-c4cc(F)c5nc(C)n(C(C)C)c5c4)n3)nc2)CC1` [Abemaciclib (methanesulfonate)], the drug sensitivity score in experiment [1], in experiment [2] and in experiment [3] was 0 DSS each time.
Consider `Cc1cc2c(C(C)C)c(O)c(O)c(C=O)c2c(O)c1-c1c(C)cc2c(C(C)C)c(O)c(O)c(C=O)c2c1O` [Gossypol (acetic acid)], for which the drug sensitivity score in experiment [1], in experiment [2] and in experiment [3] was 0 DSS in each case.
Turning to `Oc1c(I)cc(Cl)c2cccnc12` [Clioquinol], the drug sensitivity score in experiment [1], in experiment [2] and in experiment [3] was 0 DSS throughout.
For the molecule `Cc1cn(-c2cc(NC(=O)c3ccc(C)c(Nc4nccc(-c5cccnc5)n4)c3)cc(C(F)(F)F)c2)cn1` [Nilotinib (monohydrochloride monohydrate)], the drug sensitivity score in experiment [1], in experiment [2] and in experiment [3] was 0 DSS throughout.
Consider `Nc1cccc2c1CN(C1CCC(=O)NC1=O)C2=O` (stereo not given) [Lenalidomide], for which the drug sensitivity score in experiment [1], in experiment [2] and in experiment [3] was 0 DSS in each case.
For `Cc1cnc(Nc2ccc(OCCN3CCCC3)cc2)nc1Nc1cccc(S(=O)(=O)NC(C)(C)C)c1` [Fedratinib (hydrochloride hydrate)], the drug sensitivity score is 0 DSS in experiment [1], 0 DSS in experiment [2] and 1.2 DSS in experiment [3].
With `OCc1ccc(-c2ccc(-c3ccc(CO)s3)o2)s1` [RITA], the drug sensitivity score amounted to 1.8 DSS in experiment [1], 6.7 DSS in experiment [2] and 5.4 DSS in experiment [3].
On to `COC(=O)N[C@@H](C)CNc1nccc(-c2cn(C(C)C)nc2-c2cc(Cl)cc(NS(C)(=O)=O)c2F)n1` [Encorafenib], for which the drug sensitivity score in experiment [1], in experiment [2] and in experiment [3] was 0 DSS in each case.
With `CC1=NN(c2ccccc2)C(=O)C1` [Edaravone], the drug sensitivity score in experiment [1], in experiment [2] and in experiment [3] was 0 DSS each time.
In the case of `O=C(Nc1ccc([N+](=O)[O-])cc1Cl)c1cc(Cl)ccc1O` [Niclosamide], the drug sensitivity score in experiment [1], in experiment [2] and in experiment [3] was 0 DSS in each case.
With `CC1(C)NC(=O)N(c2ccc([N+](=O)[O-])c(C(F)(F)F)c2)C1=O` [Nilutamide], the drug sensitivity score in experiment [1], in experiment [2] and in experiment [3] was 0 DSS in each case.
Regarding `CC(=O)CCCCn1c(=O)c2c(ncn2C)n(C)c1=O` [Pentoxifylline], the drug sensitivity score in experiment [1], in experiment [2] and in experiment [3] was 0 DSS throughout.
As to `N#CCCCSC(=N)N` [Kevetrin (hydrochloride)], the drug sensitivity score in experiment [1], in experiment [2] and in experiment [3] was 0 DSS throughout.
Take `O=S(=O)(c1cccc2cnccc12)N1CCCNCC1` [Fasudil (Hydrochloride)]: the drug sensitivity score in experiment [1], in experiment [2] and in experiment [3] was 0 DSS each time.
As for `O=C(O)c1cccc(-c2noc(-c3ccccc3F)n2)c1` [Ataluren], the drug sensitivity score in experiment [1], in experiment [2] and in experiment [3] was 0 DSS each time.
Consider `CC(=O)OCC(=O)[C@@]1(O)[C@H](C)C[C@H]2[C@@H]3CCC4=CC(=O)C=C[C@]4(C)[C@@]3(F)[C@@H](O)C[C@@]21C` [Dexamethasone acetate], for which the drug sensitivity score in experiment [1], in experiment [2] and in experiment [3] was 0 DSS each time.
Turning to `O=C1CCC(N2Cc3c(C#CCCCNC(=O)c4ccc(NC(=O)[C@@H]5NC6(CCCCC6)[C@@]6(C(=O)Nc7cc(Cl)ccc76)[C@H]5c5cccc(Cl)c5F)cc4)cccc3C2=O)C(=O)N1` (stereo not given in full) [MD-224], the drug sensitivity score in experiment [1], in experiment [2] and in experiment [3] was 0 DSS each time.
On to `CC(C)c1c(C(=O)Nc2ccccc2)c(-c2ccccc2)c(-c2ccc(F)cc2)n1CC[C@@H](O)C[C@@H](O)CC(=O)O` [Atorvastatin], for which the drug sensitivity score in experiment [1], in experiment [2] and in experiment [3] was 0 DSS throughout.
Turning to `C[C@H]1C[C@@H]2[C@H]([C@@H](O)C[C@@]3(C)[C@H]2CC[C@]3(O)C(=O)CO)[C@@]2(C)C=CC(=O)C=C12` [Methylprednisolone], the drug sensitivity score in experiment [1], in experiment [2] and in experiment [3] was 0 DSS in each case.
For `CCCC(=O)Nc1ncnc2c1ncn2[C@@H]1O[C@@H]2COP(=O)(O)O[C@H]2[C@H]1OC(=O)CCC` [Bucladesine (calcium)], the drug sensitivity score in experiment [1], in experiment [2] and in experiment [3] was 0 DSS throughout.
`C[C@@H]1CC[C@]2(C(=O)O[C@@H]3O[C@H](CO)[C@@H](O)[C@H](O)[C@H]3O)CC[C@]3(C)C(=CC[C@@H]4[C@@]5(C)CC[C@H](O[C@@H]6OC[C@H](O)[C@H](O)[C@H]6O)C(C)(C)[C@@H]5CC[C@]43C)[C@@H]2[C@]1(C)O` [Ziyuglycoside I]: the drug sensitivity score in experiment [1], in experiment [2] and in experiment [3] was 0 DSS each time.
As to `COc1cc2nc(N3CCN(C(=O)c4ccco4)CC3)nc(N)c2cc1OC` [Prazosin (hydrochloride)], the drug sensitivity score in experiment [1] was 1.7 DSS; in experiment [2], 2.4 DSS; in experiment [3], 4.9 DSS.
On the same counts, the results for `C[C@]12C=CC(=O)C=C1CC[C@@H]1[C@@H]2C(=O)C[C@@]2(C)[C@H]1CC[C@]2(O)C(=O)CO` [Prednisone] are 0.4 DSS, 0 DSS and 0 DSS.
`Oc1cc(Cl)ccc1Oc1ccc(Cl)cc1Cl` [Triclosan]: the drug sensitivity score in experiment [1] is 0 DSS; in experiment [2] it was 2.4 DSS; in experiment [3] it was 0 DSS.
`O=C1C(c2c(O)[nH]c3ccccc23)=Nc2ccccc21` [Indirubin]: the drug sensitivity score in experiment [1], in experiment [2] and in experiment [3] was 0 DSS throughout.
As to `O=C(O)Cc1ccccc1Nc1c(Cl)cccc1Cl` [Diclofenac (diethylamine)], the drug sensitivity score in experiment [1], in experiment [2] and in experiment [3] was 0 DSS throughout.
Regarding `O=C([O-])c1ccc(-n2nc(-c3ccccc3[O-])nc2-c2ccccc2[O-])cc1.[Fe+3]` [Deferasirox (Fe3+ chelate)], the drug sensitivity score in experiment [1], in experiment [2] and in experiment [3] was 0 DSS each time.
Regarding `COc1cc(NS(C)(=O)=O)ccc1Nc1c2ccccc2nc2ccccc12` [Amsacrine], the drug sensitivity score in experiment [1], in experiment [2] and in experiment [3] was 0 DSS throughout.
Consider `O=C(O)c1cccnc1` [Niacin], for which the drug sensitivity score in experiment [1], in experiment [2] and in experiment [3] was 0 DSS in each case.
For `COC1=C[C@@H]2[C@@H]3Cc4ccc(OC)c(O)c4[C@]2(CCN3C)CC1=O` [Sinomenine hydrochloride], the drug sensitivity score in experiment [1], in experiment [2] and in experiment [3] was 0 DSS in each case.
Take `CN1[C@@H]2CC[C@H]1C[C@@H](OC(=O)C(CO)c1ccccc1)C2` (stereo not given in full) [Atropine (sulfate monohydrate)]: the drug sensitivity score in experiment [1], in experiment [2] and in experiment [3] was 0 DSS in each case.
Turning to `CC1(C)CCC(C)(C)c2cc(NC(=O)c3ccc(C(=O)O)cc3)ccc21` [Tamibarotene], the drug sensitivity score in experiment [1], in experiment [2] and in experiment [3] was 0 DSS each time.
In the case of `CC(=O)[C@]1(O)Cc2c(O)c3c(c(O)c2[C@@H](O[C@H]2C[C@H](N)[C@H](O)[C@H](C)O2)C1)C(=O)c1ccccc1C3=O` [Idarubicin (hydrochloride)], the drug sensitivity score in experiment [1] turned out to be 1 DSS; in experiment [2], 0.4 DSS; in experiment [3], 0.4 DSS.
In the case of `COc1ccnc(C[S+]([O-])c2nc3cc(OC(F)F)ccc3[nH]2)c1OC` (stereo not given) [Pantoprazole (sodium)], the drug sensitivity score in experiment [1], in experiment [2] and in experiment [3] was 0 DSS throughout.
In the case of `CC(C(=O)O)c1cccc(Oc2ccccc2)c1` (stereo not given) [Fenoprofen (Calcium hydrate)], the drug sensitivity score in experiment [1], in experiment [2] and in experiment [3] was 0 DSS each time.
For `N#CC[C@H](C1CCCC1)n1cc(-c2ncnc3[nH]ccc23)cn1` [Ruxolitinib (S enantiomer)], the drug sensitivity score in experiment [1], in experiment [2] and in experiment [3] was 0 DSS in each case.
Take `COC(=O)Nc1nc2cc(C(=O)c3ccc(F)cc3)ccc2[nH]1` [Flubendazole]: the drug sensitivity score in experiment [1] came to 1.1 DSS; in experiment [2], 3.2 DSS; in experiment [3], 1.5 DSS.
